Library screening results

By UniProt entry, the sequences of proteins in these tests, tags left out.
UniProt E9BF75, entry or part of it: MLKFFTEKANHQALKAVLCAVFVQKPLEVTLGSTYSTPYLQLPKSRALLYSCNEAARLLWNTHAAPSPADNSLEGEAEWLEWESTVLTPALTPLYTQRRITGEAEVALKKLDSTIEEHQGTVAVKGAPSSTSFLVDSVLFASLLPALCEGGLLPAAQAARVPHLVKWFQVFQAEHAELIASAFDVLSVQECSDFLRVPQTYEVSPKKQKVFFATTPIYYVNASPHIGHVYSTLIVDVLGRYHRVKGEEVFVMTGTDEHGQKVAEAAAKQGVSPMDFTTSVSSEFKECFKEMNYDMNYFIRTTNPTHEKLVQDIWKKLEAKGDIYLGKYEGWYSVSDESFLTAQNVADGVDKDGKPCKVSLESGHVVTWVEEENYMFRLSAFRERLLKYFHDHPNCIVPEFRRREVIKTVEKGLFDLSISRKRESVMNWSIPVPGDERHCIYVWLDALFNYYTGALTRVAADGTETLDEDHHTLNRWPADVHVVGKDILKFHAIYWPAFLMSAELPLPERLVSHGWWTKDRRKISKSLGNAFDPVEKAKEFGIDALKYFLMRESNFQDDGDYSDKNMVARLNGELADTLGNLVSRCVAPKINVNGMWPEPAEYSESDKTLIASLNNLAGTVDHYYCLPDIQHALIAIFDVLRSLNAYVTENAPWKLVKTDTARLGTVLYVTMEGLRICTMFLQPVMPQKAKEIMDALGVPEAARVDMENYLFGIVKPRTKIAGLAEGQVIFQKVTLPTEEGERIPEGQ

Measurements from “University of Dundee, Small-Polar-MMV Screening Library” (2021), ChEMBL document CHEMBL3988442.

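Methionyl-tRNA synthetase (putative), Leishmania donovani (UniProt E9BF75). Primary screen of methionyl-tRNA synthetase; the read-out is not stated. The test concentration is not given. The values are filed as inhibition. Of about 68,000 compounds tested this way, about 24 (0.035%) reached 50% or more in at least one test.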

Results are percentages, as filed.
The record does not define 0% and 100%; most values in the screen are far below 50% and negative numbers occur (in some assays of this library far below -100).
This is an unselected part of the compounds tested.

For O=C(c1ccnnc1)N1CCC2(CCN(c3ccsc3)C2=O)C1 (stereo not shown) the result was 4.11%. With Cc1cc(CN(C)C2CCCN(Cc3noc(C)n3)C2)no1 (stereo not shown) the screen gave 4.571%. With O=C(NCC1CC(=O)N(CCc2ccccc2)C1)c1ccc[nH]1 (stereo not shown) the screen gave 1.648%. c1cnn(CC2CN(Cc3csc(-c4ccsc4)n3)CCO2)c1 (stereo not shown) read 13.04%. CCc1cc(C(=O)N2CCC3(CCCN(CC4CC4)C3=O)C2)cs1 (stereo not shown) gave 4.795%. For Cc1ccc(CN2C[C@@H]3CCN(Cc4ccncc4)C(=O)[C@H]3C2)s1 the result was 18.49%.

Result for CCNc1cc2c(nn1)CCN(C(=O)c1cccc3c1OCO3)C2 was 17.05%. CN(Cc1ncnn1C)C(=O)CCn1ccc2ccccc21 read 14.51%. Cn1cccc1-c1cc(C(=O)N2CCCC2c2ccc(C(N)=O)s2)[nH]n1 (stereo not shown) read 9.89%. With COc1c(CNCc2ccc(N(C)C)nc2)c(C)nn1C the screen gave 14.21%. With O=C(NC1CC(=O)N(C2CC2)C1)c1cccs1 (stereo not shown) the screen gave 0%. For C1CCC(CSc2nnnn2C2CC2)OC1 (stereo not shown) the result was 6.597%.

Result for O=C(c1cnn[nH]1)N1CCCC1c1nc2cc(F)ccc2[nH]1 (stereo not shown) was 9.348%. For Cc1ccsc1CN(CCN(C)C)Cc1ccccn1 the result was 11.5%. For Cc1nc(C2CCCN(C(=O)c3sc(C)nc3C)C2)no1 (stereo not shown) the result was 10.33%. With CCCNC(=O)N1CCC(Oc2cc(C)ccc2F)(C(=O)O)CC1 the screen gave 5.31%. COCC(=O)N(Cc1ccc2cc[nH]c2c1)C1CC1 read 18.13%. CC(=O)NCCNC(=O)c1sc(-c2ccc(C)cc2C)nc1C gave 12.38%.

Result for Clc1cncc(NCc2cccc(OCCN3CCOCC3)c2)n1 was 16.32%. Result for Cc1cc(C(=O)O)cc(S(=O)(=O)Nc2ccc3c(c2)OCCCO3)c1C was 17.71%. CC(C)(C)n1ncc2c1NC(=O)CC2c1cccc(O)c1 (stereo not shown) gave 18.04%. CN1CC=C(c2noc(CCC(=O)N3CCOCC3)n2)CC1 read 17.49%. For Cc1noc(C(C)Nc2ccc3oc(C(C)C)nc3c2)n1 (stereo not shown) the result was -1.465%. Cc1cc(NC(=O)CN2CCCC(Cn3cncn3)C2)no1 (stereo not shown) read 19.5%.

Result for CNC(=O)c1cn[nH]c1C1(C)CCCN(Cc2nccn2C(C)C)C1 (stereo not shown) was 9.646%. CCN1CCC(NC(=O)CN2CC(n3nc(C)cc3C)C2)CC1 gave 11.17%. CCC(C(=O)N1CCN(S(=O)(=O)N2CCCC2)CC1)n1cccn1 (stereo not shown) gave 22.5%. Cc1nc(NC(=O)NCCCN2CCC(C(N)=O)CC2)sc1C gave 19.2%. With CCNC(=O)C(C)(C)NC(=O)NCc1cccc(Br)c1 the screen gave 5.85%. Result for Cc1cnc(N2Cc3nccn3CC(Cn3ncccc3=O)C2)nc1 (stereo not shown) was 15.07%.

Result for CC(=O)N1CCC(c2ccnc(Nc3cncnc3)n2)C1 (stereo not shown) was 9.408%. Result for CCOC(=O)CC1CCCCN1C(=O)c1cccc2ccnn12 (stereo not shown) was 11.02%. With N#Cc1ccc(C(=O)N(Cc2ccncc2)C2CC2)cc1 the screen gave 11.63%. Result for CC(=O)NCCC(=O)Nc1sccc1C(=O)C(C)(C)C was 8.462%. For COCCOc1ccc(-c2noc([C@@H]3CCCN3)n2)cn1 the result was 4.396%. CC(=O)NCC(=O)N(CCc1ccccc1)C1CCOC1 (stereo not shown) gave 10.99%.

NC(=O)C1(c2cnccn2)CCCN1Cc1ccc(Cl)c(F)c1 (stereo not shown) read 10.17%. CN1CCN([C@@H]2CN(C(=O)CCOc3ccccc3)C[C@H]2O)CC1 gave 5.312%. For COCc1nc(CNc2cccc(-c3ncon3)c2)cs1 the result was 6.873%. With CCCc1nc2c(c(C)c(C)n2Cc2cccnc2)c(N)c1CC the screen gave 6.971%. With CC(=O)c1ccc(OCC(=O)NS(=O)(=O)c2cccnc2)cc1 the screen gave 12.63%. With CC(=O)c1c(C)nn(CC(=O)Nc2ccc(Br)cc2)c1C the screen gave 1.439%.

Result for O=C(c1n[nH]c2c1CN(C1CCOC1)CC2)N1CCCC1 (stereo not shown) was 12.89%. Result for CN(Cc1cnn(C)c1)C(=O)Cc1ccc2c(c1)OCCO2 was 9.581%. Result for CC(C)NS(=O)(=O)c1cc(C(=O)O)cc(-c2ccccc2CN(C)C)c1 was 12.27%. Result for CCn1cc(CN2C[C@@H]3CCCN3C[C@@H]2CCSC)c(C)n1 was 14.29%. Result for Cc1cccc(-c2nccnc2C2CCN(C)CC2)c1C was 14.95%. O=C(CSc1ccc2c(c1)OCCO2)NS(=O)(=O)c1ccccc1F gave 6.367%.

COc1ccc(Cl)cc1CS(=O)(=O)Cc1nc(C)no1 gave -1.465%. O=C(Nc1ccccc1)c1cc2n(n1)CCCN(C(=O)N1CCCC1)C2 read -0.5362%. For COc1cc(NC(=O)c2ccc(C)c(F)c2)c(C(=O)N(C)C)cc1OC the result was 5.305%. With COCCc1noc(CN(C)c2cc(C)ncn2)n1 the screen gave 5.249%. Cc1ccc(CN2CCc3onc(C(=O)NCCN(C)C)c3C2)o1 gave 8.791%. Result for CC(C)c1nccn1C1CCCN(C(=O)C2=NN(C)C(=O)CC2)C1 (stereo not shown) was 11.96%.

Repeated from the top, 4 entries:

SMILES,inhibition
O=C(c1ccnnc1)N1CCC2(CCN(c3ccsc3)C2=O)C1 (stereo not shown),4.11
Cc1cc(CN(C)C2CCCN(Cc3noc(C)n3)C2)no1 (stereo not shown),4.571
O=C(NCC1CC(=O)N(CCc2ccccc2)C1)c1ccc[nH]1 (stereo not shown),1.648
c1cnn(CC2CN(Cc3csc(-c4ccsc4)n3)CCO2)c1 (stereo not shown),13.04